The values below come from article PMC7462902.

Amino acid sequences for entries named in this document (tags omitted). A change or cut given only in a name is not applied to a line headed by its entry. Chains listed by the source or under a name are the forms on record and can include a tag or linker. Residues count along the entry.
Ca2+/calmodulin-dependent protein kinase 1D, catalytic domain and autoinhibitory domain (residues 1-333) (Q8IU85, form named): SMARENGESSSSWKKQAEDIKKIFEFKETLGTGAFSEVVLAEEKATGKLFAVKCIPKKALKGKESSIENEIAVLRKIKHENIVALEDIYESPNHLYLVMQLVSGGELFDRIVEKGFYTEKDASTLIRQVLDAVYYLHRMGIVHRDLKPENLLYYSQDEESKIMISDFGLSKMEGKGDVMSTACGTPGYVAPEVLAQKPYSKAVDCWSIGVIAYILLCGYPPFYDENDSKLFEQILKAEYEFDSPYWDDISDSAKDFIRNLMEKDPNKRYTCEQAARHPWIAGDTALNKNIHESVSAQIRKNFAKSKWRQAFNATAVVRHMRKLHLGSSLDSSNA

This assay deals with Ca2+/calmodulin-dependent protein kinase 1D, catalytic domain and autoinhibitory domain (residues 1-333) (human) (UniProt Q8IU85). Briefly: SEC; Superdex-75 in 50 mM Na phosphate pH 7.5, 150 mM NaCl, 0.5 mM TCEP, 0.02% NaN3; final purification step; both purified.

No constants are given. Whether binding was seen depends on the method and setting.

Take “Ca2+/calmodulin-dependent protein kinase 1D, catalytic domain and autoinhibitory domain (residues 1-333) (from UniProt Q8IU85 1-333) (domain or fragment)”: the binding result is given as “no binding”.
